According to patent US20100249372A1 (WISCONSIN ALUMNI RESEARCH FOUNDATION, published 2010):
Results are given in words; binding and its absence hold for the method and conditions named. Some entries that bind do so weakly or less than the wild type. For some assays here: Sequences can lack the tags named with a protein.

Experiments:
[1] = target: mouse SV2A, endogenous (mouse) (UniProt Q9JIS5); experiment: immunofluorescence of BoNT/A on hippocampal neurons of SV2 knockout mouse lines
[2] = target: mouse SV2B, endogenous (mouse) (UniProt Q8BG39); experiment: as above
[3] = target: T1, rat SV2C, full length (rat) (UniProt Q9Z2I6); experiment: description's account of the experiments
T1 sequence: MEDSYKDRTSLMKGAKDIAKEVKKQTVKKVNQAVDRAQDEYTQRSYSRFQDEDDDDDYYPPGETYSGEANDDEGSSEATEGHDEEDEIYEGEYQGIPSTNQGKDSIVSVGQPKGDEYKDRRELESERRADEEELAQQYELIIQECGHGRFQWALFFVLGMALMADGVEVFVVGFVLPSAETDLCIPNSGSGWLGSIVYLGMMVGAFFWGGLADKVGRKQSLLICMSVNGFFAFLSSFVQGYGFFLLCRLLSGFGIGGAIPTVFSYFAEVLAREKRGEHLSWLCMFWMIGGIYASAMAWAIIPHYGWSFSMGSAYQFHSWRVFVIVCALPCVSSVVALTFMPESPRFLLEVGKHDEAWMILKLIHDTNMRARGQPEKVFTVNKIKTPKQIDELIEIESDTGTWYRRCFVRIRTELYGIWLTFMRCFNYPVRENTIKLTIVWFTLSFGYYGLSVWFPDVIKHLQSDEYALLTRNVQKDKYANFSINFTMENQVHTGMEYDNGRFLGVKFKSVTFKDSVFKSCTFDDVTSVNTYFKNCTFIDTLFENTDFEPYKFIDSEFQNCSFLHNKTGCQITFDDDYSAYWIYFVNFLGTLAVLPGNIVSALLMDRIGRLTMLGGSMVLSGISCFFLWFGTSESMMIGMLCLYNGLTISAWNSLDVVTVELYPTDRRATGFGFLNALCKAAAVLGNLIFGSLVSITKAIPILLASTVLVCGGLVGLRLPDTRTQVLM

[4] = target: rat SV2A, full length (rat) (UniProt Q02563); experiment: description's account of the experiments
[5] = target: rat SV2B, full length (rat) (UniProt Q63564); experiment: description's account of the experiments
[6] = target: GST-tagged 4th luminal domain (L4) of rat SV2A (rat) (UniProt Q02563); experiment: pull-down with immobilised GST-L4, western blot
[7] = target: GST-tagged 4th luminal domain (L4) of rat SV2B (rat) (UniProt Q63564); experiment: pull-down with immobilised GST-L4, western blot
[8] = target: T2, GST-tagged 4th luminal domain (L4) of rat SV2C (rat) (UniProt Q9Z2I6); experiment: pull-down with immobilised GST-L4, western blot
T2 sequence: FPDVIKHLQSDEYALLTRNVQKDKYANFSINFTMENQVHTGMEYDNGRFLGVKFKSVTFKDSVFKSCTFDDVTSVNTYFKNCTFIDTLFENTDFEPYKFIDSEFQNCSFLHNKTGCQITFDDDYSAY

[9] = target: GST fusion of rat SV2C amino acids 454-546 (rat) (UniProt Q9Z2I6); experiment: summary of the example (GST pull-down)
[10] = target: GST fusion of rat SV2C amino acids 529-566 (rat); experiment: summary of the example (GST pull-down)
[11] = target: GST fusion of rat SV2C amino acids 529-562 (rat); experiment: summary of the example (GST pull-down)
[12] = target: T1, rat SV2C, full length (rat); experiment: summary of the example
[13] = target: rat SV2A, full length (rat) (UniProt Q02563); experiment: summary of the example
[14] = target: rat SV2B, full length (rat) (UniProt Q63564); experiment: summary of the example
[15] = target: T1, rat SV2C, full length (rat); experiment: immunostaining of transfected SV2A/B double knockout hippocampal neurons
[16] = target: rat SV2A, full length (rat) (UniProt Q02563); experiment: as above
[17] = target: rat SV2B, full length (rat) (UniProt Q63564); experiment: as above
[18] = target: GST fusion of rat SV2C amino acids 454-546 (rat) (UniProt Q9Z2I6); experiment: description's account of the truncation experiments
[19] = target: GST fusion of rat SV2C amino acids 529-566 (rat); experiment: as above
[20] = target: GST fusion of rat SV2C amino acids 529-562 (rat); experiment: as above

Measured: binding

Botulinum neurotoxin A (from UniProt P0DPI1 2-1296)
binds: [1] | [2] | [3] | [4] | [5] | [6] | [7] | [8] | [9] | [10] | [11] | [12] | [13] | [14] | [15] | [16] | [17] | [18] | [19] | [20]
